# Experimental data published in PubChem BioAssay AID540276 (National Center for Advancing Translational Sciences (NCATS), 2011).
# Among all 300,000 compounds or so, about 5,400 (1.8%) were called active. This list was built around the results that the source calls inconclusive (neither active nor inactive); the mix of calls is not that of the screen. Calls come from the whole dose curve; tested in HEK293 cells. Potencies beside an inconclusive call are fits to weak or partial responses and may not hold up.
# Experiment: qHTS for inhibitors of binding or entry into cells for Marburg Virus
# Conditions: Marburg virus pseudotyped entry inhibition, cell reporter; activity change, negative = inhibition: at 37.8 µM (top of the series) unless noted
# % is set by controls: 0 for no effect and ±100 for the full control effect; potency is the fitted concentration of half-maximal effect.
SMILES,Potency,"activity change, negative = inhibition"
Cc1cc(Cl)c(S(=O)(=O)Nc2ccon2)cc1OCC(=O)NC1CCCCC1,"inconclusive: 1.26 µM [inhibitor, single point]",
CN1CCN(CC(=O)Nc2nc(-c3c[nH]c4ccccc34)cs2)CC1,"inconclusive: 20 µM [inhibitor, single point]",
CN(C)c1ccc(C(O)c2cc3ccccc3s2)cc1 (centres undefined),"inconclusive: 12.6 µM [inhibitor, single point]",
COC(=O)c1ccc(Cn2nnc3ccccc32)cc1,,inactive: -11% [at 46.1 µM]
COc1ccccc1N1CCN(CCCCCCOc2ccc(F)cc2)CC1,active: 17.8 µM,
CC(C)CC(=O)NC(NC(=O)CC(C)C)c1cccc([N+](=O)[O-])c1,"inconclusive: 35.5 µM [inhibitor, single point]",
Cc1ccc(NC(=O)C(=O)NC2CCCCC2)cc1,"inconclusive: 3.98 µM [activator, partial curve, poor fit]",
Cc1coc2cc3oc(=O)c4c(c3cc12)CCCC4,"inconclusive: 0.231 µM [inhibitor, full curve, poor fit]",
Cc1ccc(NC(=O)Cn2ccc([N+](=O)[O-])n2)cc1Cl,"inconclusive: 0.562 µM [inhibitor, full curve, poor fit]",
Cc1ccccc1CN1CCN(S(=O)(=O)c2ccc(Cl)s2)CC1,"inconclusive: 35.5 µM [inhibitor, single point]",
Cn1c(-c2c(N)n(CCCc3ccccc3)c3nc4ccccc4nc23)nc2ccccc21,"inconclusive: 18.3 µM [inhibitor, single point]",
COc1ccc(N(C(=O)CNC(=O)c2ccco2)C(C(=O)NC2CCCC2)c2ccco2)cc1 (centres undefined),"inconclusive: 35.5 µM [inhibitor, single point]",
O=C(CCN1C(=O)c2ccccc2S1(=O)=O)Nc1ccccc1O,"inconclusive: 35.5 µM [activator, single point]",
CCC1=C(O)CC(O)=C(C2NNC(CCC(=O)O)C2C2NC3CCCCC3N2C)C1 (centres undefined),,inactive: 5.26% [at 46.1 µM]
COc1ccc(CCC(C)NCC(C)c2ccccc2)cc1 (centres undefined),"inconclusive: 35.5 µM [inhibitor, single point]",
O=C(Nc1cccnc1)Nc1cccc([N+](=O)[O-])c1,,inactive: 5.75%
NC(=O)C1(N2CCCCC2)CCN(C(=O)Nc2ccccc2C(F)(F)F)CC1,,inactive: 1.18%

# Two entries from above, reformatted:
SMILES | Potency | activity change, negative = inhibition
O=C(Nc1cccnc1)Nc1cccc([N+](=O)[O-])c1 |  | inactive: 5.75%
NC(=O)C1(N2CCCCC2)CCN(C(=O)Nc2ccccc2C(F)(F)F)CC1 |  | inactive: 1.18%

# Further records follow.

SMILES,Potency,"activity change, negative = inhibition"
O=C(NCc1ccco1)c1sc2cc(F)ccc2c1Cl,,inactive: 3.27%
CCOC(=O)C1=NOC2C(=O)N(c3ccc(Cl)cc3Cl)C(=O)C12 (centres undefined),"inconclusive: 2.24 µM [activator, single point]",
Cc1ccc(CNC(=O)c2cn(C3CCCCC3)c(=O)c3c2c2ccccc2n3C)o1,"inconclusive: 35.5 µM [inhibitor, single point]",
COC(=O)c1c(NC(C)=O)sc(C(=O)Nc2ccccc2)c1C,,inactive: -14.6% [at 46.1 µM]
CC1(C)C2CCC(C2)C1(C)NC(=O)CN1CCN(Cc2ccccc2)CC1 (centres undefined),,inactive: -2.72% [at 46.1 µM]
COC(=O)c1c(C(=O)OC)c(-c2ccc(Cl)cc2)n2c1CS(=O)(=O)C2,,inactive: 2.98% [at 46.1 µM]
CSc1ncccc1C(=O)OCc1ccc([N+](=O)[O-])cc1,,inactive: 2.37% [at 46.1 µM]
CC(C)C(OC(=O)CN1C(=O)c2ccccc2C1=O)C(=O)NC1CCCCC1 (centres undefined),"inconclusive: 3.98 µM [inhibitor, single point]",
C/C(=N\NS(=O)(=O)c1ccc(Cl)cc1)c1ccc(NC(=O)c2ccco2)cc1,"inconclusive: 0.0651 µM [inhibitor, single point]",
CS(=O)(=O)N1N=C(c2ccc(Br)cc2)CC1c1ccc2c(c1)OCO2 (centres undefined),"inconclusive: 0.366 µM [activator, partial curve, poor fit]",
CCCCCCc1c(C)c2c(cc(C)c3c(C)coc32)oc1=O,,inactive: -2.49% [at 46.1 µM]
COc1cccc(NC(=O)Nc2ccc(Cc3ccncc3)cc2)c1,"inconclusive: 3.98 µM [inhibitor, full curve, poor fit]",
CCN(CC)CCCN1C=C2C(=O)C(C)(OC(=O)C3CCCC3)C(=O)C=C2C=C1c1ccsc1 (centres undefined),"inconclusive: 5.31 µM [inhibitor, single point]",
CC(=O)c1nn(-c2cccc(C(F)(F)F)c2)c(=O)[nH]c1=O,"inconclusive: 1.26 µM [inhibitor, single point]",
Oc1ccc(N2CCN(C(=S)NCCc3ccccc3)CC2)cc1,"inconclusive: 3.98 µM [inhibitor, full curve, poor fit]",
Nc1nc(-c2cccnc2)nc2sc3c(c12)CCCC3,"inconclusive: 0.562 µM [activator, full curve, poor fit]",
COc1ccc(C2C=C(c3ccccc3)Nc3nc(NC(C)=O)nn32)cc1 (centres undefined),"inconclusive: 5.62 µM [inhibitor, single point]",
